Key:
[1] = Sensory evaluation of p-cresol odor masking in p-cresol-containing citrus-flavored beverage; settings: beverage with 50 ppb p-cresol, average score of 7 panelists, scale 0-4
Protocol: To 2 g of lemon flavor obtained by making lemon oil into an essence, purified water was added to adjust the total amount to 1000 ml. To this citrus-flavored beverage, p-cresol adjusted to a concentration of 1% by mass with 95% ethanol was added to 50 ppb in the citrus-flavored beverage. To this p-cresol-containing citrus-flavored beverage, 1-oxacycloheptadecan-7-en-2-one was added at the concentrations presented in Table 1 to confirm the p-cresol odor intensity (masking effect) and the influence on the citrus flavor of each sample.
For the test, seven skilled panelists were selected to perform sensory evaluation. The p-cresol odor intensity of the p-cresol-containing citrus-flavored beverage without added l-oxacycloheptadecan-7-en-2-one was determined as “Rating: 4,” and the p-cresol odor intensity of the p-cresol-free citrus-flavored beverage was determined as “Rating: 0,” and the p-cresol odor intensity (masking effect) of each sample was relatively evaluated according to the following evaluation criteria.
In addition, the influence of the citrus-flavored beverage on the citrus flavor was evaluated absolutely according to the following evaluation criteria for the presence or absence of off- flavor other than p-cresol odor and citrus flavor (Off-Flavor Intensity).
The results are as in Table 1, presenting the average score of the evaluation results for each panelist.

[2] = Sensory evaluation of p-cresol odor masking in p-cresol-containing citrus-flavored confectionery (tablet); settings: tablet with 200 ppb p-cresol, average score of 6 panelists, scale 0-4
Protocol: Lemon cold-pressed oil was added to the tablet having the composition presented in Table A at a concentration of 1 % by mass, and medium chain fatty acid triglycerides (MCT) was used to adjust p-cresol to a concentration of 0.1%, which was further added so as to reach 200 ppb in the citrus flavored confectionery. To this p-cresol-containing citrus-flavored confectionery, 1-oxacycloheptadecan-7-en-2-one was added at the concentrations presented in Table 12, and then tableting was performed to confirm the p-cresol odor intensity (masking effect) and the influence on the citrus flavor of each sample.
Six skilled panelists were selected to perform the same sensory evaluation as in Example 1. The results are as in Table 12, presenting the average score of the evaluation results for each panelist.

| Structure (SMILES) | Off-Flavor Intensity ([1]; 1 ppb added) [points] | Off-Flavor Intensity ([1]; 1 ppm added) [points] | Off-Flavor Intensity ([1]; 10 ppb added) [points] | Off-Flavor Intensity ([1]; 10 ppm added) [points] | Off-Flavor Intensity ([1]; 10 ppt added) [points] | Off-Flavor Intensity ([1]; 100 ppb added) [points] | Off-Flavor Intensity ([1]; 100 ppt added) [points] | Off-Flavor Intensity ([1]; 0.01 ppt added) [points] | Off-Flavor Intensity ([1]; 0.1 ppt added) [points] | Off-Flavor Intensity ([1]; 1 ppt added) [points] | Off-Flavor Intensity ([2]; 4 ppb added) [points] | Off-Flavor Intensity ([2]; 40 ppb added) [points] | Off-Flavor Intensity ([2]; 40 ppt added) [points] | Off-Flavor Intensity ([2]; 400 ppb added) [points] | Off-Flavor Intensity ([2]; 400 ppt added) [points] | Off-Flavor Intensity ([1]; 0.001 ppt added) [points] | Off-Flavor Intensity ([1]; 100 ppm added) [points] |
| --- | --- | --- | --- | --- | --- | --- | --- | --- | --- | --- | --- | --- | --- | --- | --- | --- | --- |
| CC1(C)CCC[C@]2(C)[C@H]3CC(=O)O[C@]3(C)CC[C@@H]12 [Sclareolide, sclareolide] | 0.9 | 2.6 | 1.3 | 3.4 | 0.1 | 2.0 | 0.3 | – | – | – | – | – | – | – | – | – | – |
| O=C1CCCCC=CCCCCCCCCCO1 [1-Oxacycloheptadecan-7-En-2-One, 1-oxacycloheptadecan-7-en-2-one] | 2.9 | – | 3.6 | – | 1.4 | 3.9 | 2.0 | 0.4 | 0.7 | 1.0 | 1.5 | 1.7 | 1.0 | 2.5 | 1.3 | – | – |
| CCCCCC1CC=CC(=O)O1 (stereo not shown) [δ-2-Decenolactone, δ-2-decenolactone] | 1.4 | 3.4 | 2.0 | 3.6 | 0.6 | 2.7 | 1.1 | – | – | 0.1 | – | – | – | – | – | – | – |
| O=C1CCCCCC=CCCCCCCCCO1 [1-Oxacycloheptadecan-8-En-2-One, 1-oxacycloheptadecan-8-en-2-one] | 2.9 | – | 3.4 | – | 1.6 | 3.7 | 2.3 | 0.3 | 0.7 | 0.9 | 1.0 | 1.2 | 0.8 | 2.0 | 1.0 | – | – |
| O=C1CCCCCCC/C=C\CCCCCCC1 [Civetone, civetone] | 2.9 | – | 3.7 | – | 2.1 | 3.9 | 2.7 | 0.9 | 1.6 | 2.0 | – | – | – | – | – | 0.7 | – |
| C[C@@H]1CCCCCCCCCCCCC(=O)C1 [Muscone, muscone] | 2.7 | – | 3.6 | – | 2.0 | 3.9 | 2.6 | 0.9 | 1.1 | 1.7 | – | – | – | – | – | 0.4 | – |
| O=C1CCCCCCC/C=C\CCCCCCO1 [Isoambrettolide, isoambrettolide] | 2.9 | – | 3.3 | – | 2.0 | 3.6 | 2.6 | 0.6 | 1.3 | 1.6 | 1.3 | 1.5 | 1.2 | 2.3 | 1.2 | – | – |
| O=C1CCCCCCCCCCCCCCO1 [Pentalide, pentalide] | 2.7 | – | 3.3 | – | 1.7 | 3.7 | 2.3 | 0.4 | 0.9 | 1.4 | 1.5 | 1.8 | 1.0 | 2.8 | 1.3 | – | – |
| C=C1CC[C@H]2O[C@]2(C)CC[C@@H]2[C@@H]1CC2(C)C [β-caryophyllene Oxide, β-caryophyllene oxide] | 1.3 | 2.6 | 1.6 | 3.4 | 0.6 | 2.0 | 1.0 | – | – | – | – | – | – | – | – | – | 3.7 |
| CCc1occc(=O)c1O [Ethyl Maltol, ethyl maltol] | 0.6 | 2.1 | 1.3 | 2.4 | 0.3 | 1.9 | 0.6 | – | – | – | – | – | – | – | – | – | 3.9 |
| O=C/C=C/c1ccccc1 [Cinnamic Aldehyde, cinnamic aldehyde] | 0.9 | 2.1 | 1.1 | 2.6 | 0.3 | 1.9 | 0.4 | – | – | – | – | – | – | – | – | – | 3.7 |

From patent publication US20230180804A1, “FLAVOR COMPOSITION, AND FOOD AND BEVERAGE” (TAKASAGO INTERNATIONAL CORPORATION, priority 2020, published 2023)
